Experimental data as given in PMC8769375.
Results are given in words; binding and its absence hold for the method and conditions named. Where a sequence is shown, tags or fusion partners need not be part of it.

Experiments:
[1] = molecular target: Myc-tagged human preproinsulin R46X (early termination at the 46th residue of PPI) (human) (UniProt F8WCM5); assay: non-reducing SDS-PAGE and Western blot of disulfide-linked complexes; INS1 cells transfected with one Myc-tagged PPI construct; lysates blotted under non-reducing conditions
[2] = molecular target: Myc-tagged human preproinsulin R46X (early termination at the 46th residue of PPI) (human) (UniProt F8WCM5); assay: non-reducing SDS-PAGE and Western blot of disulfide-linked complexes; 293T cells transfected with one Myc-tagged PPI construct; lysates blotted with anti-Myc under non-reducing conditions
[3] = molecular target: Myc-tagged human preproinsulin R46X (early termination at the 46th residue of PPI) (human) (UniProt F8WCM5); assay: non-reducing SDS-PAGE and Western blot of disulfide-linked complexes; 293T cells co-transfected with untagged PPI-WT and Myc-tagged PPI-WT or mutants; homodimers (D, D') and heterodimers (H) told apart by size under non-reducing conditions

binding [1]: no binding
binding [2]: no binding
binding [3]: no binding
B1: Myc-tagged human preproinsulin R46X (early termination at the 46th residue of PPI) (domain or fragment, UniProt F8WCM5 1-45)
chain: MALWMRLLPLLALLALWGPDPAAAFVNQHLCGSHLVEALYLVCGE
